Assay results as given in patent US20120052070A1.
These are yes or no findings as the source states them, for the method shown. Some binding calls cover weakened binding; strength is not graded here.

Sequences of proteins named here, by UniProt entry; tags and fusion partners are left off. Residues count along the entry.
UniProt O75581, residues 20-1370: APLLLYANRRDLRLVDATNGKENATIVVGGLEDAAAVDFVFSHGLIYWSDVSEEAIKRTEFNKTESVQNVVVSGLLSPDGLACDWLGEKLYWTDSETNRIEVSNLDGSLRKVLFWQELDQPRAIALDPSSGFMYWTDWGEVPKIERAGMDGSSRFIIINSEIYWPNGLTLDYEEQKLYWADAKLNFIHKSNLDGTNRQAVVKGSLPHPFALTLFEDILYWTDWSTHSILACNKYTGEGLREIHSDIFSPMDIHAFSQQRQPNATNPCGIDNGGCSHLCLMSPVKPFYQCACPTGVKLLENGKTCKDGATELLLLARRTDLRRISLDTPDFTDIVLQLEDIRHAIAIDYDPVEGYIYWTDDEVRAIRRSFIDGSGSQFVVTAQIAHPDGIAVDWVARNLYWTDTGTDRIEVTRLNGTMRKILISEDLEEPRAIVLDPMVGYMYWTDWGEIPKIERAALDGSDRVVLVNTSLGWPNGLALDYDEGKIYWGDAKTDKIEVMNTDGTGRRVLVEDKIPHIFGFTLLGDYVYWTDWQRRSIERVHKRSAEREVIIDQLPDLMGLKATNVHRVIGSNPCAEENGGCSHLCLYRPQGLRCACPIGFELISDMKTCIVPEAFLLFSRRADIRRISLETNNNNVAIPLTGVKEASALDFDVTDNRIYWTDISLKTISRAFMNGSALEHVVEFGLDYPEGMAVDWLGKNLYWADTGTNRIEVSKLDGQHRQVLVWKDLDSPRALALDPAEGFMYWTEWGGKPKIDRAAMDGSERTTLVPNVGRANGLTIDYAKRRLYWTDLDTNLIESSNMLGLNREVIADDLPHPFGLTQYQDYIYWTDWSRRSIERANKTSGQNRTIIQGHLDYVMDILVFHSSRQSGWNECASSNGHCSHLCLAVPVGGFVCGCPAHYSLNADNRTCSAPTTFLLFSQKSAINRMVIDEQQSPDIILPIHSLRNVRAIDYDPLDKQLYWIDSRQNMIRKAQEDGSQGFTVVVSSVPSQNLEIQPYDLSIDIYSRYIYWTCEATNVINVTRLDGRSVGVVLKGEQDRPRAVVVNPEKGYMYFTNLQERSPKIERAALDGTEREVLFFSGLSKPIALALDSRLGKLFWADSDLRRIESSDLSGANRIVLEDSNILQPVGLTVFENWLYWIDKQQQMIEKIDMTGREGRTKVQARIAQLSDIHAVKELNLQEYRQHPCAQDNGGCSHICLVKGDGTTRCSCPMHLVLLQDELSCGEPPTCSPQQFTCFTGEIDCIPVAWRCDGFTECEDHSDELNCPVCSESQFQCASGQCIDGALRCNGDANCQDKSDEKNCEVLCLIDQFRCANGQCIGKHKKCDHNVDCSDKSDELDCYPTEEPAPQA

Biological target: recombinant LRP6 (R&D Systems Cat#1505-LR) (UniProt O75581)
Assay: ELISA on plates coated with 1 µg/ml recombinant LRP6; bound DKK1 detected with anti-DKK1 antibody AF1096

binding: binds
B1: recombinant human DKK1 (ligand)
chain: TLNSVLNSNAIKNLPPPLGGAAGHPGSAVSAAPGILYPGGNKYQTIDNYQPYPCAEDEECGTDEYCASPTRGGDAGVQICLACRKRRKRCMRHAMCCPGNYCKNGICVSSDQNHFRGEIEETITESFGNDHSTLDGYSRRTTLSSKMYHTKGQEGSVCLRSSDCASGLCCARHFWSKICKPVLKEGQVCTKHRRKGSHGLEIFQRCYCGEGLSCRIQKDHHQASNSSRLHTCQRH
